These are yes or no findings as the source states them, for the method shown. Binding seen in cells or lysates may run through a third protein. Some results given as binding are weak or reduced against the parent protein; the word gives no strength.
T1: signal transducer and activator of transcription 1 (STAT1) (mouse (endogenous in BV2)) (UniProt P42225)
T1 sequence: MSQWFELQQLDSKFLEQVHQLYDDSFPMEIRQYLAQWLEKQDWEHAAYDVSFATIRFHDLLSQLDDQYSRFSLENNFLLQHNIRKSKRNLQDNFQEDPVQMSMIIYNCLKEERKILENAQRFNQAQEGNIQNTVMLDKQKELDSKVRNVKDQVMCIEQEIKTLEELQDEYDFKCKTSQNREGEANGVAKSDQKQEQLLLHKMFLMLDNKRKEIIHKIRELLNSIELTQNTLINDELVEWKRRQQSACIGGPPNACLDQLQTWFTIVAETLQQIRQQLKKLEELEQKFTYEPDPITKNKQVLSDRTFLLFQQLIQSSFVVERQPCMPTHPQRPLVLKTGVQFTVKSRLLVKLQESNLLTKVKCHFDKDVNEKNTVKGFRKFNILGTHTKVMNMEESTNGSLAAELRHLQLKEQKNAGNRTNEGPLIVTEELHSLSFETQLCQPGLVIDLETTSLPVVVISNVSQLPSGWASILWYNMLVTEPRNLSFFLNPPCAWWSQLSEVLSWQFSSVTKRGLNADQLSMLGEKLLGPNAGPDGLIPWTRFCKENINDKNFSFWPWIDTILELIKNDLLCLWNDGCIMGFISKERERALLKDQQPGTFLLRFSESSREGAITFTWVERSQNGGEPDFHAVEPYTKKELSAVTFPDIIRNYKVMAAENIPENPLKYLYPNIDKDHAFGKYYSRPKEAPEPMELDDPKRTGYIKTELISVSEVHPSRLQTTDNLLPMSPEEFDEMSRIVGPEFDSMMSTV

The chains behind the UniProt entries cited, without tags or fusion partners.
UniProt P42227: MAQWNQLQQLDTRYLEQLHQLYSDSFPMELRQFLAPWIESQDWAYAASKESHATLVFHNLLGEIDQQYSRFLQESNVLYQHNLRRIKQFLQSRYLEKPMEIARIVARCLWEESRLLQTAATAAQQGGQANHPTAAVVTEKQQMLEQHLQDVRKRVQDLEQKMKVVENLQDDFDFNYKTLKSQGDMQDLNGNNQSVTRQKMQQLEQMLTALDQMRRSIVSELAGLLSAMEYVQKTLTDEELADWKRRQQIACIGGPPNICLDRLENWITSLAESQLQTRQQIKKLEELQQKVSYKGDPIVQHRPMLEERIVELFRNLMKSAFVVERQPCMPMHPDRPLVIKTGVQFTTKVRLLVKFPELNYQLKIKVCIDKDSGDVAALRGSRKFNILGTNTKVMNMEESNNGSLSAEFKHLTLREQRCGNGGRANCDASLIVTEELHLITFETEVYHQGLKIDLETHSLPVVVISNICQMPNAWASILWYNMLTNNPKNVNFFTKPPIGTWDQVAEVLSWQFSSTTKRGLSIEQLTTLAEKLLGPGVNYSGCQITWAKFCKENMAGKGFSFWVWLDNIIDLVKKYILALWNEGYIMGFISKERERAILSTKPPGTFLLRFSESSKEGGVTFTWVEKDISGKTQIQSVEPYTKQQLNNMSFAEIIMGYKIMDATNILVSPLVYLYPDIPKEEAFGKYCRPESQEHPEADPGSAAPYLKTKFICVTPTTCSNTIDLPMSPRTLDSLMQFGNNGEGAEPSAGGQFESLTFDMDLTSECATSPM
UniProt O09106: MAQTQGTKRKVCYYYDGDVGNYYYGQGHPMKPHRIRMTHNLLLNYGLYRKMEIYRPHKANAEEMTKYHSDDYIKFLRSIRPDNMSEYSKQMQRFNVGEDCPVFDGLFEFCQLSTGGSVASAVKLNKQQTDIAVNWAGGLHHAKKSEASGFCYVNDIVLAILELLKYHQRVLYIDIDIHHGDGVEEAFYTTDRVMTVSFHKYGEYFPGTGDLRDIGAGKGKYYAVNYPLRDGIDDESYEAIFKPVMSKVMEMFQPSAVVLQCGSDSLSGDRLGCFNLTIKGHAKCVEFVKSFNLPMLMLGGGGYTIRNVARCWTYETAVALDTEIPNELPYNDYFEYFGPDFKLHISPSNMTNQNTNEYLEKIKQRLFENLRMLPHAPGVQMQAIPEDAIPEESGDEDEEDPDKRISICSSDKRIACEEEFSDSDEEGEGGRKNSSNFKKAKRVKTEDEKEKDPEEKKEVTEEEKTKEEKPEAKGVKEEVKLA

T2: STAT6 (mouse (endogenous in BV2)) (UniProt P52633)
T2 sequence: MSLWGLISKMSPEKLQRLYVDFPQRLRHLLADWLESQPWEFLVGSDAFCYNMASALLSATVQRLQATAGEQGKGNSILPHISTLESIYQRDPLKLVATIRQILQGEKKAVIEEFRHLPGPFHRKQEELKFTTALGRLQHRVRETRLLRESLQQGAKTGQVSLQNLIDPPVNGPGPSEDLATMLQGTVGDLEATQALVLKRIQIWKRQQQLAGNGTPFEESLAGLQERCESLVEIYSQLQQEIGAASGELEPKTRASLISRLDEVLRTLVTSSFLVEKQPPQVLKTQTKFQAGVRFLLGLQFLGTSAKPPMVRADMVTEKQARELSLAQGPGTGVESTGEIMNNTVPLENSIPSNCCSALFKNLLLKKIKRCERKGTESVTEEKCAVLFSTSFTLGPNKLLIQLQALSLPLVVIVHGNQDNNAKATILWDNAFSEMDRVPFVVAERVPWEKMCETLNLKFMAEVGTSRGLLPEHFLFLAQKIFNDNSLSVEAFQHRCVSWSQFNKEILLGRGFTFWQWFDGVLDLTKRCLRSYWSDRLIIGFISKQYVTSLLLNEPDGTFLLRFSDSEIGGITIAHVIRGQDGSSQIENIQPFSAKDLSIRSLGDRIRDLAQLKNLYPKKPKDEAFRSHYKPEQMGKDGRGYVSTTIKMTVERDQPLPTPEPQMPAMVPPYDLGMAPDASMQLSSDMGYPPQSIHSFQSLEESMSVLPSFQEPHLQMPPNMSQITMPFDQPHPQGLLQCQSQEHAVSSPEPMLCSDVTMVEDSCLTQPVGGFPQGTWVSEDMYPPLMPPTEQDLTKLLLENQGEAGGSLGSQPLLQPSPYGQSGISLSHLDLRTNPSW

T3: signal transducer and activator of transcription 1 (STAT1) (mouse (endogenous in BV2)), P42225
T3 chain: T1 sequence

B1: NF-κB (p65), Q04207 1-549 (protein)
chain: MDDLFPLIFPSEPAQASGPYVEIIEQPKQRGMRFRYKCEGRSAGSIPGERSTDTTKTHPTIKINGYTGPGTVRISLVTKDPPHRPHPHELVGKDCRDGYYEADLCPDRSIHSFQNLGIQCVKKRDLEQAISQRIQTNNNPFHVPIEEQRGDYDLNAVRLCFQVTVRDPAGRPLLLTPVLSHPIFDNRAPNTAELKICRVNRNSGSCLGGDEIFLLCDKVQKEDIEVYFTGPGWEARGSFSQADVHRQVAIVFRTPPYADPSLQAPVRVSMQLRRPSDRELSEPMEFQYLPDTDDRHRIEEKRKRTYETFKSIMKKSPFNGPTEPRPPTRRIAVPTRNSTSVPKPAPQPYTFPASLSTINFDEFSPMLLPSGQISNQALALAPSSAPVLAQTMVPSSAMVPLAQPPAPAPVLTPGPPQSLSAPVPKSTQAGEGTLSEALLHLQFDADEDLGALLGNSTDPGVFTDLASVDNSEFQQLLNQGVSMSHSTAEPMLMEYPEAITRLVTGSQRPPDPAPTPLGTSGLPNGLSGDEDFSSIADMDFSALLSQISS

Tests used:
Test in all cases: co-IP; endogenous proteins in total lysates of BV2 cells (LPS 100 ng/ml or IL-4 20 ng/ml for 24 h, with or without parthenolide 1 μM); lysis in buffer A (20 mM TrisHCl pH 7.4, 150 mM NaCl, 1% Triton X-100, 0.5% sodium deoxycholate); immunoprecipitated with anti-STAT1, anti-STAT3 or anti-STAT6 overnight at 4 °C on protein A/G magnetic beads; immunoblot
[1] = biological target: T1, signal transducer and activator of transcription 1 (STAT1) (mouse (endogenous in BV2))
[2] = biological target: signal transducer and activator of transcription 3 (STAT3) (mouse (endogenous in BV2)) (UniProt P42227)
[3] = biological target: T2, STAT6 (mouse (endogenous in BV2))
[4] = biological target: T3, signal transducer and activator of …; conditions: remark: other sources report otherwise

| Molecule | binding [1] | binding [2] | binding [3] | binding [4] |
| --- | --- | --- | --- | --- |
| HDAC1 (from UniProt O09106 1-482) (enzyme) | binds | binds | binds |  |
| B1 |  |  |  | binds |

Source: paper PMC7538575
